No constants are given. Whether binding was seen depends on the method and setting. In cells and extracts the contact can be indirect. Some entries that bind do so weakly or less than the wild type. Sequences can lack the tags named with a protein.

By UniProt entry, the sequences of proteins in these tests, tags left out.
UniProt Q9UK41: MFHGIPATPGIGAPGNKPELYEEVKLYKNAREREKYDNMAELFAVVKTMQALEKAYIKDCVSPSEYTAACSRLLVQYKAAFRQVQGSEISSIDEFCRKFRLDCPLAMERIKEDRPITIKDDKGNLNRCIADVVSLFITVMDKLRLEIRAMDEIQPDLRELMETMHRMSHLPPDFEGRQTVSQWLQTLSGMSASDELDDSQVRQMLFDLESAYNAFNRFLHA

We go through two molecules from paper doi:10.1101/2020.01.19.911891.

The experiment addresses GST-VPS28 (human) (UniProt Q9UK41). Briefly: pull-down.

B1: MYC-AKTIP (protein, UniProt Q9H8T0 1-292)
chain: MNPFWSMSTSSVRKRSEGEEKTLTGDVKTSPPRTAPKKQLPSIPKNALPITKPTSPAPAAQSTNGTHASYGPFYLEYSLLAEFTLVVKQKLPGVYVQPSYRSALMWFGVIFIRHGLYQDGVFKFTVYIPDNYPDGDCPRLVFDIPVFHPLVDPTSGELDVKRAFAKWRRNHNHIWQVLMYARRVFYKIDTASPLNPEAAVLYEKDIQLFKSKVVDSVKVCTARLFDQPKIEDPYAISFSPWNPSVHDEAREKMLTQKKPEEQHNKSVHVAGLSWVKPGSVQPFSKEEKTVAT
On to B1, for which the binding entry is given as “binds”.

B2: HA-AKTIP (protein, UniProt Q9H8T0 1-292)
chain: MNPFWSMSTSSVRKRSEGEEKTLTGDVKTSPPRTAPKKQLPSIPKNALPITKPTSPAPAAQSTNGTHASYGPFYLEYSLLAEFTLVVKQKLPGVYVQPSYRSALMWFGVIFIRHGLYQDGVFKFTVYIPDNYPDGDCPRLVFDIPVFHPLVDPTSGELDVKRAFAKWRRNHNHIWQVLMYARRVFYKIDTASPLNPEAAVLYEKDIQLFKSKVVDSVKVCTARLFDQPKIEDPYAISFSPWNPSVHDEAREKMLTQKKPEEQHNKSVHVAGLSWVKPGSVQPFSKEEKTVAT
Regarding B2, the binding result is recorded as “binds”.
